In article PMC12724370:
Results are given in words; binding and its absence hold for the method and conditions named. Binding seen in cells or lysates may run through a third protein. Some entries that bind do so weakly or less than the wild type.

By UniProt entry, the sequences of proteins in these tests, tags left out.
UniProt Q7Z434: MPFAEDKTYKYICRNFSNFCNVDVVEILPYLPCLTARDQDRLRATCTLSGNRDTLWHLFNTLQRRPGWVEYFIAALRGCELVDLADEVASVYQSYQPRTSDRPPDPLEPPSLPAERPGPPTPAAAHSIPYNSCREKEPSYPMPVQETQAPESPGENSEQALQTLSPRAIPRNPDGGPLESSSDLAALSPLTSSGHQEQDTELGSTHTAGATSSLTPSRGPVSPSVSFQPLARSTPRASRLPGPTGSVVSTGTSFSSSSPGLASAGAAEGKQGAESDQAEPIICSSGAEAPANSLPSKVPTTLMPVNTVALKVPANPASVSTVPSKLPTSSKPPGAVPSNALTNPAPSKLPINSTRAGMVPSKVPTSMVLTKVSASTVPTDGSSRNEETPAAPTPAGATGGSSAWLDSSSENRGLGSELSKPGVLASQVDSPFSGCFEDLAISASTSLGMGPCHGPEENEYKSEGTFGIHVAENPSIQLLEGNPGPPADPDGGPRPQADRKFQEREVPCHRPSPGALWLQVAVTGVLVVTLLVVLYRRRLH
UniProt Q9BUL8: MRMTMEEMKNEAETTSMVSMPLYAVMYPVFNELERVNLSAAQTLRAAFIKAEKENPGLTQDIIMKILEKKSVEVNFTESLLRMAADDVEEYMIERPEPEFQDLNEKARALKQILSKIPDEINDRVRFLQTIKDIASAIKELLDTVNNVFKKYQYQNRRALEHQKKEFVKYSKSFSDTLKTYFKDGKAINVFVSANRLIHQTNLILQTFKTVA

Target: VISA, endogenous in HeLa cells (human (endogenous in HeLa)) (UniProt Q7Z434)
Assay: co-IP; endogenous proteins in HeLa cell lysates; anti-VISA or anti-PDCD10 antibody as IP primary antibody

- binding: binds
Substance: PDCD10, endogenous in HeLa cells (from UniProt Q9BUL8 1-212)
